Literature values in patent publication US11344025B2, “Organ preconditioning formulation with mitochondrial elongating agents” (MUSC FOUNDATION FOR RESEARCH DEVELOPMENT, priority 2017, dated 2022).
For at least one compound, name, drawing or mass did not settle the structure.

Test system: heart allograft
Settings: subtherapeutic dose of rapamycin, earlier work of the inventors; cited from earlier work

For CO[C@H]1C[C@@H]2CC[C@@H](C)[C@@](O)(O2)C(=O)C(=O)N2CCCC[C@H]2C(=O)O[C@H]([C@H](C)C[C@@H]2CC[C@@H](O)[C@H](OC)C2)CC(=O)[C@H](C)/C=C(\C)[C@@H](O)[C@@H](OC)C(=O)[C@H](C)C[C@H](C)/C=C/C=C/C=C/1C [Rapamycin], the heart allograft survival is listed as “not significantly increased”.
